This is one part of the list.
Key:
Test in all cases: log2 fold change, soluble protein after heating vs DMSO (PISA); higher = thermal stabilisation; K562 lysate, 10 uM; active = over 0.2 and 3.5 SD of the protein, either way, in both replicates (recomputed)
[1] = compound: CS(=O)(=O)CCNCc1ccc(-c2ccc3ncnc(Nc4ccc(OCc5cccc(F)c5)c(Cl)c4)c3c2)o1 [lapatinib]
Method in brief: (§1)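 The values are log-two fold changes in thermal stability compared with solvent controls and come from duplicates. They were obtained by TMTpro 16plex LC-MS/MS, with channel sums equalised, on the supernatant after 21,000xg for 90 min. That supernatant came from crude K562 extract at 1 mg/mL protein treated with 10 μM compound for 30 min, heated for 3 min across 48°C-58°C, pooled and brought to 0.5% NP-40 at 4°C.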

Protein sequences, listed by entry. Tags and fused reporters are not part of them. Lines headed by an entry give the natural chain unless they say otherwise; changes in a name come on top.
UniProt P51452: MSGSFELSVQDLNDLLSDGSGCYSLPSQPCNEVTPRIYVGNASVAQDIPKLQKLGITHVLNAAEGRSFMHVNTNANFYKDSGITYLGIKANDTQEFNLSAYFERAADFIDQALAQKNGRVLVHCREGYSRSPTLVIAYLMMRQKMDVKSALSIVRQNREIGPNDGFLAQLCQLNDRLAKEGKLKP
UniProt Q9H223: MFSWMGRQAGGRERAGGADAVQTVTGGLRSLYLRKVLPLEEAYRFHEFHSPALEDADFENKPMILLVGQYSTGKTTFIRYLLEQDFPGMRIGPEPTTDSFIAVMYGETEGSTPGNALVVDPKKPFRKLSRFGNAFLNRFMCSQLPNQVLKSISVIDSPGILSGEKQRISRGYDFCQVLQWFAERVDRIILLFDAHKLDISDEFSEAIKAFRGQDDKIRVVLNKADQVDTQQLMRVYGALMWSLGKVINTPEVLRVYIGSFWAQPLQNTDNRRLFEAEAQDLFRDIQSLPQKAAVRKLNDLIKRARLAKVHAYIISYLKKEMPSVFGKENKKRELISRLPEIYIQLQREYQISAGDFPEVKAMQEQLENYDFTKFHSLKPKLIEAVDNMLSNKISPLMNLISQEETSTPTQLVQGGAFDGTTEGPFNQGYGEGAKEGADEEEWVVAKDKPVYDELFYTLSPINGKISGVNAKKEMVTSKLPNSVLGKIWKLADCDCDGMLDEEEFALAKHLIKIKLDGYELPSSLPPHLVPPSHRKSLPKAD
UniProt Q9H4M9: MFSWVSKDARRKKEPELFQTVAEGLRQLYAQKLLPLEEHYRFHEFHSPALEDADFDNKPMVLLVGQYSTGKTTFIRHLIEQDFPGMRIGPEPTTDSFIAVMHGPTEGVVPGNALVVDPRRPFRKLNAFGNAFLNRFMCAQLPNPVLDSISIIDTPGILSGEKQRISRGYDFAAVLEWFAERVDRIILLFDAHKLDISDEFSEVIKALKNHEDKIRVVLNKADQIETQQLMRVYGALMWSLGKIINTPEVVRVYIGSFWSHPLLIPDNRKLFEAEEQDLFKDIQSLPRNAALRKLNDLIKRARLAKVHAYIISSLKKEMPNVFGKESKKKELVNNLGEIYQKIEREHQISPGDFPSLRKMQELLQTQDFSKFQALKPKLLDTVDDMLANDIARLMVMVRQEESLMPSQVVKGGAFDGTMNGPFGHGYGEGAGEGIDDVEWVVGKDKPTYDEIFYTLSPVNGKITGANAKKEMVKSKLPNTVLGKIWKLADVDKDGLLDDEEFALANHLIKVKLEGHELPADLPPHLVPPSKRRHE
UniProt Q13011: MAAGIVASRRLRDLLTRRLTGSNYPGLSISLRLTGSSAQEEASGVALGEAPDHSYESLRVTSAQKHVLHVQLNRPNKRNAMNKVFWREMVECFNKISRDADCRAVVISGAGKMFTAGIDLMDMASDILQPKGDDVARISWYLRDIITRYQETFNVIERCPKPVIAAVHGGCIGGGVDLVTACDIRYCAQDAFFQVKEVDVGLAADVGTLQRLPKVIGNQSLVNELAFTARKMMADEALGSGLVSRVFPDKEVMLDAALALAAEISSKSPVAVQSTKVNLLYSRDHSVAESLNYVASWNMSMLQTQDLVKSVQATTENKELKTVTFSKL
UniProt Q5JPH6: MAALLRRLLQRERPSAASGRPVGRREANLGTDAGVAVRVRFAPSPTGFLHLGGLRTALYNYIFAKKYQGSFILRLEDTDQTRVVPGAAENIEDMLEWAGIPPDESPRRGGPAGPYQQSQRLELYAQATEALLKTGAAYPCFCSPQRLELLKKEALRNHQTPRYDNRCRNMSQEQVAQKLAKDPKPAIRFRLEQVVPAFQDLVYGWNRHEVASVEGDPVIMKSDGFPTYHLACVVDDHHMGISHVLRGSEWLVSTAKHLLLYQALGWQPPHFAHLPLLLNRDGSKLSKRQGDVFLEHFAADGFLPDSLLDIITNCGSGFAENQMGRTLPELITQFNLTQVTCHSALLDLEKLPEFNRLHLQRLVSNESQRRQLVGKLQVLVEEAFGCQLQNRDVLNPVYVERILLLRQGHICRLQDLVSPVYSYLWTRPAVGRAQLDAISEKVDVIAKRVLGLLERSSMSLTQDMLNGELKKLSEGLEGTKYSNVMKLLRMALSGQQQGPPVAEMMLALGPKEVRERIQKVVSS
UniProt Q99848: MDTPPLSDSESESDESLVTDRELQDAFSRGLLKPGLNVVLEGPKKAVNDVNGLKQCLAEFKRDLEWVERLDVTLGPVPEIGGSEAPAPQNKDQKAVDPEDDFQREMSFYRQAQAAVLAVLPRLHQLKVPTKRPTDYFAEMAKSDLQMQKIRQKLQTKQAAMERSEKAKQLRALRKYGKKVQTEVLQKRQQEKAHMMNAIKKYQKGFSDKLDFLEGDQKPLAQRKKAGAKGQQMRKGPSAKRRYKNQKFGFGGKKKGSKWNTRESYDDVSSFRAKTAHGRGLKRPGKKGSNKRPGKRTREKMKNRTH
EEF1AKMT2, A0A494BZY7, UniProt A0A494BZY7, whole entry, looked up: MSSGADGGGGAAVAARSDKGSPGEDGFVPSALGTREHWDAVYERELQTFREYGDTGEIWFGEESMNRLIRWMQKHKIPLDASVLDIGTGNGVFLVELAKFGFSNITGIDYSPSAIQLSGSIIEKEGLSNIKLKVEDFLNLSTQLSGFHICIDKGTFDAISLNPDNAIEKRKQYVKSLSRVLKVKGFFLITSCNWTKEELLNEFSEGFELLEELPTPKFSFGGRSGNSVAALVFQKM
UniProt Q8N9N8: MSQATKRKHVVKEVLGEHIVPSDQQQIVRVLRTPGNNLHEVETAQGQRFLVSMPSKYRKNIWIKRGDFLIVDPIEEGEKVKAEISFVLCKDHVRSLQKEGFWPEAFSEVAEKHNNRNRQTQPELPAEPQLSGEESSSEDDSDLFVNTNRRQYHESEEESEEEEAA
UniProt Q92611: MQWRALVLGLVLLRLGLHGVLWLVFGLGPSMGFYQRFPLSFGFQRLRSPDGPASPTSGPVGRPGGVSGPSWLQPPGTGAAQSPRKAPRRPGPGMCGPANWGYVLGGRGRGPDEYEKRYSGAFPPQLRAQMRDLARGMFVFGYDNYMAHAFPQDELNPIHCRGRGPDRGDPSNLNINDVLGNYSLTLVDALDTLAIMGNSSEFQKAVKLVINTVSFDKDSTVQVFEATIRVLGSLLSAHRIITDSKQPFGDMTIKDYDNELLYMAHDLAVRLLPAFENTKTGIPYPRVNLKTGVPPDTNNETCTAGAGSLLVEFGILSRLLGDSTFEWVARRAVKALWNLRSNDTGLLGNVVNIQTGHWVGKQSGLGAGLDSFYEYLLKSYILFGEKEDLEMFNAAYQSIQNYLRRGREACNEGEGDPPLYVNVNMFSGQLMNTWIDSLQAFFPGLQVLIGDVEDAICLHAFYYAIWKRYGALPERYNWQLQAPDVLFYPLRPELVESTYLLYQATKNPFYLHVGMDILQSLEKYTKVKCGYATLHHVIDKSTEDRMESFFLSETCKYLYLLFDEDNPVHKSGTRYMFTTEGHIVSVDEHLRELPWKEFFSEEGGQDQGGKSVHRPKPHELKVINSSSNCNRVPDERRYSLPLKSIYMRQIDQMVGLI
UniProt Q9NTX5: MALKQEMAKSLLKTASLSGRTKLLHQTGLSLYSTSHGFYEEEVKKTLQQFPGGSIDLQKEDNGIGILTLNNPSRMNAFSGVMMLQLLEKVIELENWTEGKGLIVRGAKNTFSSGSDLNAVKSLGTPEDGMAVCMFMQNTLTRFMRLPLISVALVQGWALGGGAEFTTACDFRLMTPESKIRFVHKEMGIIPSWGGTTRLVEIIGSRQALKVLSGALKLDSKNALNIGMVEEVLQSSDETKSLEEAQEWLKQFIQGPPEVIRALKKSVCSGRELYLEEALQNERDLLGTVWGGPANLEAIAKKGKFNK
UniProt Q13409, whole entry, looked up: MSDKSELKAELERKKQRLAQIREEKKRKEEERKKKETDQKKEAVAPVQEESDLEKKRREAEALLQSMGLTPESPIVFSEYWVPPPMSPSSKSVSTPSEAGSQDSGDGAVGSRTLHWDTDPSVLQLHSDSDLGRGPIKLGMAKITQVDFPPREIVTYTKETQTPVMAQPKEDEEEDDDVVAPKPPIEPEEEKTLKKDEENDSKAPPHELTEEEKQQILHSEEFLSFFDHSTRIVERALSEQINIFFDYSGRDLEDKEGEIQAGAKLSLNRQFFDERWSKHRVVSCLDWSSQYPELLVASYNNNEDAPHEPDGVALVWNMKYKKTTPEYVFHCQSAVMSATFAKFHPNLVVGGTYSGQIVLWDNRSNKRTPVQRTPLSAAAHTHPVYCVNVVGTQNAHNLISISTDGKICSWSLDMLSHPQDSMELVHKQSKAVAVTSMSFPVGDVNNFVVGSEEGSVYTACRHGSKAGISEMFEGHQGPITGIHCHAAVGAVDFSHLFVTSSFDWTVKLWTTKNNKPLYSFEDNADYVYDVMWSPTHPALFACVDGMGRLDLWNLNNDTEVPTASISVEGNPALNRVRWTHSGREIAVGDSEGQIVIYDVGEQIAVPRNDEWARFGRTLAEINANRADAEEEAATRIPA
UniProt Q14126: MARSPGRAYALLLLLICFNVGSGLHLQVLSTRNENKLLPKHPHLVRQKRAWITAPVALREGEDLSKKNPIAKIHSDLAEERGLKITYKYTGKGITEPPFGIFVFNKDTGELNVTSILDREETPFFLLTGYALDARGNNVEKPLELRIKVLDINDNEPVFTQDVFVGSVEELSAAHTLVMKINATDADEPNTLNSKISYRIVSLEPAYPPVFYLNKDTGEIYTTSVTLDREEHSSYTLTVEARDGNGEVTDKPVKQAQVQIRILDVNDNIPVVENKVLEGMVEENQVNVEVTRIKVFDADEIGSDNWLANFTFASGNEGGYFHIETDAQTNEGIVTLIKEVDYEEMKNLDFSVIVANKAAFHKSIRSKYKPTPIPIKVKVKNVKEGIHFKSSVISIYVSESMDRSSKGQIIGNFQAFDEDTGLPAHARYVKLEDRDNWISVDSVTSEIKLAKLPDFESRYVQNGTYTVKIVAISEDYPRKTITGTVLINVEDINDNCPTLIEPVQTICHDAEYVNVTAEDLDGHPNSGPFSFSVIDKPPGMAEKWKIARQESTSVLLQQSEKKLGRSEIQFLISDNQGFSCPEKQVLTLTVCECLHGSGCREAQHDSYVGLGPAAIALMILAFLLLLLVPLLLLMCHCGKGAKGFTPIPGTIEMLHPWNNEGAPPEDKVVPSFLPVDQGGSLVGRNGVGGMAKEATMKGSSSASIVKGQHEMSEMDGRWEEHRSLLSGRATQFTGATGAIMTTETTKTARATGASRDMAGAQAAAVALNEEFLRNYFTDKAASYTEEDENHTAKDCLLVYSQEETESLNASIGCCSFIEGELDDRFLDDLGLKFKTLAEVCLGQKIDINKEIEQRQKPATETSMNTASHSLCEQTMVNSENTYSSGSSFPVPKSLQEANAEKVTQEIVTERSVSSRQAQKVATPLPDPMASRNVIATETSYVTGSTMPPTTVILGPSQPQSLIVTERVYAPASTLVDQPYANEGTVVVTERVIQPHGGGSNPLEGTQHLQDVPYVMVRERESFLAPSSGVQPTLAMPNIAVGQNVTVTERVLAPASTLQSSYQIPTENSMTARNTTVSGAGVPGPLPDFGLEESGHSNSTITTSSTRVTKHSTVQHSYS
UniProt P29692: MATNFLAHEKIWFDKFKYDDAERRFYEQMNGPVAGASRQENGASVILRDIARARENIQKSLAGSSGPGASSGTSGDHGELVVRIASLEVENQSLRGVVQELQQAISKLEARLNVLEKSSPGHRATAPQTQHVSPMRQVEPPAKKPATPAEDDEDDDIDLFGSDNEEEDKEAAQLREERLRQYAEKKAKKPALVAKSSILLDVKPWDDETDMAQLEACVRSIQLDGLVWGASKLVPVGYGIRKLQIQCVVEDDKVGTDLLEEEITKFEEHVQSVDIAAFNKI
UniProt P26641, whole entry, looked up: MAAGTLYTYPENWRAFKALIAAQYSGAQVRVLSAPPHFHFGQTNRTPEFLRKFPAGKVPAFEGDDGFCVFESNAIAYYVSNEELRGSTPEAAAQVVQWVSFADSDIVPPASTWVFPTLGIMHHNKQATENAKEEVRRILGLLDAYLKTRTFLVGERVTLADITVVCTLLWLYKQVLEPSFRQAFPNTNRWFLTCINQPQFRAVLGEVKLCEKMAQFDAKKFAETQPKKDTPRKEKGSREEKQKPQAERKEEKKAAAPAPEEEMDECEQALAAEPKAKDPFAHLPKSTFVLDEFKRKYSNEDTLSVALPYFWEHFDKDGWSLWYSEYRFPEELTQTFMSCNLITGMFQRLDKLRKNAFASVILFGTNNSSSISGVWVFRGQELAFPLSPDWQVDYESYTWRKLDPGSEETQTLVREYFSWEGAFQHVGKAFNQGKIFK

[2] = compound: CS(=O)(=O)N1CCN(Cc2cc3nc(-c4cccc5[nH]ncc45)nc(N4CCOCC4)c3s2)CC1 [pictilisib]
Method in brief: as §1

[3] = compound: C[C@@H](Oc1cc(-c2cnn(C3CCNCC3)c2)cnc1N)c1c(Cl)ccc(F)c1Cl [crizotinib]
Method in brief: as §1

[4] = compound: C[C@H](C1=CC=C(C=C1)C(=O)NC2=C3C=CNC3=NC=C2)N
Method in brief: as §1

[5] = compound: C[C@H](Nc1ncnc2nc[nH]c12)c1cc2cccc(Cl)c2c(=O)n1-c1ccccc1 [duvelisib]
Method in brief: as §1

[6] = compound: Cc1cc(Nc2cc(CN3CCOCC3)c3nc(C)c(Cc4ccc(Cl)cc4F)n3n2)n[nH]1 [gandotinib]
Method in brief: as §1

[7] = compound: Cc1cc(Nc2cc(N3CCN(C)CC3)nc(Sc3ccc(NC(=O)C4CC4)cc3)n2)n[nH]1 [tozasertib]
Method in brief: as §1

[8] = compound: Cc1ccc(-n2nc(C(C)(C)C)cc2NC(=O)Nc2ccc(OCCN3CCOCC3)c3ccccc23)cc1 [doramapimod]
Method in brief: as §1

[9] = compound: Cc1ccc(NC(=O)c2ccc(CN3CC[C@H](N(C)C)C3)c(C(F)(F)F)c2)cc1Nc1nccc(-c2cncnc2)n1 [bafetinib]
Method in brief: as §1

[10] = compound: Cc1cccc(CC(=O)N2CCc3c2ccc(-c2cn(C)c4ncnc(N)c24)c3F)n1
Method in brief: as §1

[11] = compound: Cc1cn(-c2cc(NC(=O)c3ccc(C)c(Nc4nccc(-c5cccnc5)n4)c3)cc(C(F)(F)F)c2)cn1 [nilotinib]
Method in brief: as §1

[12] = compound: Cc1nc(Nc2n[nH]c3c2CN(C(=O)N[C@H](CN(C)C)c2ccccc2)C3(C)C)c2sccc2n1
Method in brief: as §1

[13] = compound: Cc1nc(Nc2ncc(C(=O)Nc3c(C)cccc3Cl)s2)cc(N2CCN(CCO)CC2)n1 [dasatinib]
Method in brief: as §1

[14] = compound: Cc1ncc(-c2ccnc(Nc3ccc(S(C)(=O)=O)cc3)n2)n1C(C)C
Method in brief: as §1

[15] = compound: Cn1cc(-c2ccc3c(c2)CCN3C(=O)Cc2cccc(C(F)(F)F)c2)c2c(N)ncnc21
Method in brief: as §1

[16] = compound: Cn1cc(CNCC2CCN(c3ncc(C(=O)NO)cn3)CC2)c2ccccc21 [quisinostat]
Method in brief: as §1

[17] = compound: Cn1cncc1[C@@](N)(c1ccc(Cl)cc1)c1ccc2c(c1)c(-c1cccc(Cl)c1)cc(=O)n2C [tipifarnib]
Method in brief: as §1

[18] = compound: NC(=O)Nc1cc(-c2cccc(F)c2)sc1C(=O)N[C@H]1CCCNC1
Method in brief: as §1

[19] = compound: NC(=O)c1cnc(N[C@@H]2CCCC[C@@H]2N)nc1Nc1cccc(-n2nccn2)c1
Method in brief: as §1

[20] = compound: NC1(c2ccc(-c3nc4ccn5c(=O)[nH]nc5c4cc3-c3ccccc3)cc2)CCC1
Method in brief: as §1

Measured: log2 fold change

DUSP3 (UniProt P51452)
inactive: [1] -0.016 | [2] -0.038 | [3] 0 | [4] -0.05 | [5] 0.003 | [6] 0.006 | [7] 0.028 | [8] -0.003 | [9] -0.048 | [10] 0.031 | [11] 0.033 | [12] -0.035 | [13] -0.06 | [14] 0.038 | [15] 0.011 | [16] -0.02 | [17] 0.037 | [18] -0.021 | [19] 0.028 | [20] -0.007

EHD4 (UniProt Q9H223)
inactive: [1] -0.022 | [2] -0.026 | [3] -0.029 | [4] -0.043 | [5] 0.019 | [6] -0.042 | [7] -0.008 | [8] 0.023 | [9] -0.031 | [10] 0.019 | [11] 0.023 | [12] 0.026 | [13] -0.065 | [14] 0 | [15] 0.145 | [16] -0.014 | [17] -0.015 | [18] 0.03 | [19] 0.007 | [20] 0.049

DST (UniProt Q03001)
inactive: [1] -0.019 | [2] 0.015 | [3] -0.02 | [4] -0.17 | [5] 0.018 | [6] 0.101 | [7] 0.024 | [8] 0.023 | [9] -0.137 | [10] 0.246 | [11] -0.002 | [12] -0.035 | [13] -0.023 | [14] 0.045 | [15] -0.06 | [16] -0.118 | [17] 0.069 | [18] 0.022 | [19] 0.027 | [20] -0.107

EHD1 (UniProt Q9H4M9)
inactive: [1] -0.026 | [2] -0.025 | [3] -0.056 | [4] 0.052 | [5] -0.015 | [6] -0.171 | [7] -0.009 | [8] 0.023 | [9] -0.03 | [10] -0.04 | [11] 0.022 | [12] -0.017 | [13] -0.07 | [14] -0.018 | [15] -0.004 | [16] -0.009 | [17] 0.001 | [18] 0.03 | [19] 0.011 | [20] -0.003

ECH1 (UniProt Q13011)
inactive: [1] -0.035 | [2] -0.008 | [3] -0.03 | [4] -0.089 | [5] 0.016 | [6] 0.005 | [7] 0.178 | [8] -0.008 | [9] 0.091 | [10] 0.028 | [11] -0.008 | [12] -0.019 | [13] 0.195 | [14] -0.003 | [15] 0.02 | [16] -0.008 | [17] 0.022 | [18] 0.001 | [19] -0.022 | [20] 0.193

EARS2 (UniProt Q5JPH6)
inactive: [1] -0.04 | [2] -0.084 | [3] -0.026 | [4] -0.023 | [5] 0.037 | [6] 0.043 | [7] 0.127 | [8] 0.004 | [9] -0.006 | [10] 0.115 | [11] -0.043 | [12] -0.023 | [13] -0.09 | [14] 0.014 | [15] 0.045 | [16] -0.019 | [17] -0.084 | [18] 0.058 | [19] -0.055 | [20] -0.025

Two entries drawn at random from those above, as already listed:
EHD1 (UniProt Q9H4M9)
inactive: [1] -0.026 | [2] -0.025 | [3] -0.056 | [4] 0.052 | [5] -0.015 | [6] -0.171 | [7] -0.009 | [8] 0.023 | [9] -0.03 | [10] -0.04 | [11] 0.022 | [12] -0.017 | [13] -0.07 | [14] -0.018 | [15] -0.004 | [16] -0.009 | [17] 0.001 | [18] 0.03 | [19] 0.011 | [20] -0.003

DST (UniProt Q03001)
inactive: [1] -0.019 | [2] 0.015 | [3] -0.02 | [4] -0.17 | [5] 0.018 | [6] 0.101 | [7] 0.024 | [8] 0.023 | [9] -0.137 | [10] 0.246 | [11] -0.002 | [12] -0.035 | [13] -0.023 | [14] 0.045 | [15] -0.06 | [16] -0.118 | [17] 0.069 | [18] 0.022 | [19] 0.027 | [20] -0.107

Following part

EBNA1BP2 (UniProt Q99848)
inactive: [1] -0.012 | [2] 0.011 | [3] 0.028 | [4] 0.02 | [5] 0.009 | [6] -0.004 | [7] -0.002 | [8] -0.04 | [9] -0.03 | [10] 0.023 | [11] 0.016 | [12] -0.026 | [13] 0.015 | [14] -0.004 | [15] -0.017 | [16] 0.094 | [17] 0.024 | [18] -0.006 | [19] -0.011 | [20] -0.018

EEF1AKMT2, A0A494BZY7
inactive: [1] -0.001 | [2] -0.028 | [3] -0.061 | [4] -0.044 | [5] 0.006 | [6] -0.095 | [7] 0 | [8] -0.023 | [9] 0 | [10] 0.007 | [11] 0.011 | [12] -0.012 | [13] -0.008 | [14] 0.016 | [15] 0.002 | [16] 0.007 | [17] -0.025 | [18] 0.042 | [19] -0.021 | [20] -0.033

EIF1AD (UniProt Q8N9N8)
inactive: [1] 0.012 | [2] 0.024 | [3] 0.001 | [4] -0.056 | [5] 0.01 | [6] 0.019 | [7] 0.007 | [8] 0.046 | [9] 0.022 | [10] -0.021 | [11] 0.015 | [12] -0.008 | [13] 0.027 | [14] 0.018 | [15] 0.055 | [16] 0.002 | [17] 0.02 | [18] -0.007 | [19] -0.003 | [20] -0.017

EDEM1 (UniProt Q92611)
inactive: [1] 0.058 | [2] -0.072 | [3] -0.098 | [4] -0.023 | [5] 0.016 | [6] -0.042 | [7] -0.008 | [8] 0.013 | [9] 0.069 | [10] -0.026 | [11] 0.138 | [12] -0.177 | [13] -0.034 | [14] 0.183 | [15] 0.079 | [16] 0.104 | [17] -0.064 | [18] -0.021 | [19] 0.047 | [20] -0.031

ECHDC1 (UniProt Q9NTX5)
inactive: [1] 0.025 | [2] -0.01 | [3] 0.046 | [4] -0.045 | [5] -0.01 | [6] 0.021 | [7] -0.006 | [8] -0.035 | [9] 0 | [10] 0.037 | [11] -0.061 | [12] -0.01 | [13] -0.033 | [14] -0.01 | [15] -0.004 | [16] 0 | [17] 0.04 | [18] 0.006 | [19] -0.013 | [20] 0.011

DYNC1I2 isoform 5 (UniProt Q13409)
inactive: [1] -0.003 | [2] -0.017 | [3] -0.003 | [4] -0.004 | [5] -0.002 | [6] 0.009 | [7] 0.012 | [8] 0.006 | [9] 0.03 | [10] -0.003 | [11] 0.029 | [12] 0.016 | [13] 0.008 | [14] -0.003 | [15] 0.001 | [16] 0.023 | [17] -0.011 | [18] -0.014 | [19] -0.008 | [20] -0.01

EEF2 (UniProt P13639)
inactive: [1] 0.002 | [2] 0.005 | [3] 0.029 | [4] 0.007 | [5] -0.01 | [6] 0.011 | [7] -0.004 | [8] -0.009 | [9] 0.066 | [10] -0.014 | [11] 0.004 | [12] -0.003 | [13] 0.002 | [14] 0.012 | [15] -0.011 | [16] 0.046 | [17] 0.018 | [18] -0.01 | [19] -0.01 | [20] 0.006

DSG2 (UniProt Q14126)
inactive: [1] 0.023 | [2] -0.016 | [3] 0.007 | [4] 0.015 | [5] -0.019 | [6] 0.007 | [7] -0.005 | [8] 0.015 | [9] 0.035 | [10] -0.017 | [11] -0.016 | [12] -0.009 | [13] 0.074 | [14] -0.028 | [15] 0.045 | [16] -0.02 | [17] -0.035 | [18] 0.034 | [19] 0.089 | [20] 0.006

EEF1D isoform 2 (UniProt P29692)
inactive: [1] -0.013 | [2] 0.032 | [3] -0.015 | [4] -0.077 | [5] 0.066 | [6] 0.03 | [7] -0.008 | [8] 0.02 | [9] -0.011 | [10] 0.049 | [11] -0.013 | [12] -0.02 | [13] -0.023 | [14] -0.029 | [15] -0.053 | [16] -0.009 | [17] 0.01 | [18] -0.012 | [19] -0.001 | [20] -0.003

EEF1G isoform 2 (UniProt P26641)
inactive: [1] -0.001 | [2] -0.01 | [3] -0.012 | [4] 0.037 | [5] -0.028 | [6] -0.167 | [7] -0.012 | [8] 0.014 | [9] 0.041 | [10] -0.098 | [11] 0.011 | [12] 0.004 | [13] 0.017 | [14] -0.013 | [15] 0.034 | [16] 0.025 | [17] -0.002 | [18] 0.004 | [19] -0.007 | [20] 0.001

Source: the supplement of paper PMC10849652
